These are yes or no findings as the source states them, for the method shown. For some of these results: Binding seen in cells or lysates may run through a third protein. Some results given as binding are weak or reduced against the parent protein; the word gives no strength. For some of these results: Where a sequence is shown, tags or fusion partners need not be part of it.

Test [1] concerns the target Trx1* (N-terminal 6×His Trx1 K4R K19R) (E. coli) [thioredoxin: P0AA25]. In words: cross-linking; live E. coli expressing Trx1* treated with BVSB or PDES; Ni-NTA, Lys-C, second Ni-NTA step, on-beads Glu-C; cross-linked peptides identified by LC-MS/MS (pLink2); results of both cross-linkers combined.
Test [2] concerns the target Trx1-6×His (thioredoxin 1) (E. coli) [thioredoxin: P0AA25]. As to the kind of experiment: cross-linking; live E. coli BL21(DE3) co-expressing His-tagged Trx1 and the Flag-tagged partner; BVSB or PDES (2.5 mM, 1 h at 4°C and 2 h at RT, in PBS); Western blot under denaturing conditions (anti-His, anti-Flag) and MS of cross-linked peptides.
For test [3], the target named is T1, TXN1-6×His (thioredoxin 1) (UniProt P10599).
T1 sequence: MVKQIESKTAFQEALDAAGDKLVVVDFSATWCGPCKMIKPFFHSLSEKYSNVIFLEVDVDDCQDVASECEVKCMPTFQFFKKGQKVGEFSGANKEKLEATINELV
In words: cross-linking; live HEK293T cells transfected with the His-tagged bait, 0.5 mM BVSB or PDES (1 h at 4°C and 2 h at RT, in PBS); lysis in 8 M urea, Ni-NTA, trypsin, SCX fractions; cross-linked peptides identified by LC-MS/MS (pLink2).

The target in test [4] is Trx1-6×His (thioredoxin 1) (E. coli) [thioredoxin: P0AA25]. As to the kind of experiment: cross-linking; in vitro: 10 μM Trx1 and 10 μM Tpx or PAPR in Hepes buffer pH 8.0, 0.5 mM BVSB or PDES, RT, 4 h, stopped with 100 mM DTT; Western blot and MS of cross-linked peptides (trypsin and Glu-C); both purified. (In western blotting, separated proteins are transferred to a membrane and probed.)

B1: AceA (enzyme, UniProt P0A9G6 1-434)
chain: MKTRTQQIEELQKEWTQPRWEGITRPYSAEDVVKLRGSVNPECTLAQLGAAKMWRLLHGESKKGYINSLGALTGGQALQQAKAGIEAVYLSGWQVAADANLAASMYPDQSLYPANSVPAVVERINNTFRRADQIQWSAGIEPGDPRYVDYFLPIVADAEAGFGGVLNAFELMKAMIEAGAAAVHFEDQLASVKKCGHMGGKVLVPTQEAIQKLVAARLAADVTGVPTLLVARTDADAADLITSDCDPYDSEFITGERTSEGFFRTHAGIEQAISRGLAYAPYADLVWCETSTPDLELARRFAQAIHAKYPGKLLAYNCSPSFNWQKNLDDKTIASFQQQLSDMGYKFQFITLAGIHSMWFNMFDLANAYAQGEGMKHYVEKVQQPEFAAAKDGYTFVSHQQEVGTGYFDKVTTIIQGGTSSVTALTGSTEESQF
Regarding B1, in test [1], the binding entry was “binds”.

B2: GatD (enzyme, UniProt P0A9S3 1-346)
chain: MKSVVNDTDGIVRVAESVIPEIKHQDEVRVKIASSGLCGSDLPRIFKNGAHYYPITLGHEFSGYIDAVGSGVDDLHPGDAVACVPLLPCFTCPECLKGFYSQCAKYDFIGSRRDGGFAEYIVVKRKNVFALPTDMPIEDGAFIEPITVGLHAFHLAQGCENKNVIIIGAGTIGLLAIQCAVALGAKSVTAIDISSEKLALAKSFGAMQTFNSSEMSAPQMQSVLRELRFNQLILETAGVPQTVELAVEIAGPHAQLALVGTLHQDLHLTSATFGKILRKELTVIGSWMNYSSPWPGQEWETASRLLTERKLSLEPLIAHRGSFESFAQAVRDIARNAMPGKVLLIP
Consider B2, for which, in test [1], the binding entry was “binds”.

B3: PpsA (enzyme, UniProt P23538 1-792)
chain: MSNNGSSPLVLWYNQLGMNDVDRVGGKNASLGEMITNLSGMGVSVPNGFATTADAFNQFLDQSGVNQRIYELLDKTDIDDVTQLAKAGAQIRQWIIDTPFQPELENAIREAYAQLSADDENASFAVRSSATAEDMPDASFAGQQETFLNVQGFDAVLVAVKHVFASLFNDRAISYRVHQGYDHRGVALSAGVQRMVRSDLASSGVMFSIDTESGFDQVVFITSAWGLGEMVVQGAVNPDEFYVHKPTLAANRPAIVRRTMGSKKIRMVYAPTQEHGKQVKIEDVPQEQRDIFSLTNEEVQELAKQAVQIEKHYGRPMDIEWAKDGHTGKLFIVQARPETVRSRGQVMERYTLHSQGKIIAEGRAIGHRIGAGPVKVIHDISEMNRIEPGDVLVTDMTDPDWEPIMKKASAIVTNRGGRTCHAAIIARELGIPAVVGCGDATERMKDGENVTVSCAEGDTGYVYAELLEFSVKSSSVETMPDLPLKVMMNVGNPDRAFDFACLPNEGVGLARLEFIINRMIGVHPRALLEFDDQEPQLQNEIREMMKGFDSPREFYVGRLTEGIATLGAAFYPKRVIVRLSDFKSNEYANLVGGERYEPDEENPMLGFRGAGRYVSDSFRDCFALECEAVKRVRNDMGLTNVEIMIPFVRTVDQAKAVVEELARQGLKRGENGLKIIMMCEIPSNALLAEQFLEYFDGFSIGSNDMTQLALGLDRDSGVVSELFDERNDAVKALLSMAIRAAKKQGKYVGICGQGPSDHEDFAAWLMEEGIDSLSLNPDTVVQTWLSLAELKK
In the case of B3, in test [1], the binding entry was “binds”.

B4: Tpx-Flag (co-expressed with Trx1-6×His) (enzyme, UniProt P0A862 1-168)
chain: MSQTVHFQGNPVTVANSIPQAGSKAQTFTLVAKDLSDVTLGQFAGKRKVLNIFPSIDTGVCAASVRKFNQLATEIDNTVVLCISADLPFAQSRFCGAEGLNNVITLSTFRNAEFLQAYGVAIADGPLKGLAARAVVVIDENDNVIFSQLVDEITTEPDYEAALAVLKA
For B4, the binding entry in test [2] is listed as “binds”.

B5: Thioredoxin Reductase 1 (TXNRD1) (enzyme, UniProt Q16881 1-649)
chain: MGCAEGKAVAAAAPTELQTKGKNGDGRRRSAKDHHPGKTLPENPAGFTSTATADSRALLQAYIDGHSVVIFSRSTCTRCTEVKKLFKSLCVPYFVLELDQTEDGRALEGTLSELAAETDLPVVFVKQRKIGGHGPTLKAYQEGRLQKLLKMNGPEDLPKSYDYDLIIIGGGSGGLAAAKEAAQYGKKVMVLDFVTPTPLGTRWGLGGTCVNVGCIPKKLMHQAALLGQALQDSRNYGWKVEETVKHDWDRMIEAVQNHIGSLNWGYRVALREKKVVYENAYGQFIGPHRIKATNNKGKEKIYSAERFLIATGERPRYLGIPGDKEYCISSDDLFSLPYCPGKTLVVGASYVALECAGFLAGIGLDVTVMVRSILLRGFDQDMANKIGEHMEEHGIKFIRQFVPIKVEQIEAGTPGRLRVVAQSTNSEEIIEGEYNTVMLAIGRDACTRKIGLETVGVKINEKTGKIPVTDEEQTNVPYIYAIGDILEDKVELTPVAIQAGRLLAQRLYAGSTVKCDYENVPTTVFTPLEYGACGLSEEKAVEKFGEENIEVYHSYFWPLEWTIPSRDNNKCYAKIICNTKDNERVVGFHVLGPNAGEVTQGFAAALKCGLTKKQLDSTIGIHPVCAEVFTTLSVTKRSGASILQAGCUG
modifications: selenocysteine at 648 (Sec648)
Regarding B5, the binding entry in test [3] is on record as “binds”.

B6: DAPDC (enzyme, UniProt P00861 1-420)
chain: MPHSLFSTDTDLTAENLLRLPAEFGCPVWVYDAQIIRRQIAALKQFDVVRFAQKACSNIHILRLMREQGVKVDSVSLGEIERALAAGYNPQTHPDDIVFTADVIDQATLERVSELQIPVNAGSVDMLDQLGQVSPGHRVWLRVNPGFGHGHSQKTNTGGENSKHGIWYTDLPAALDVIQRHHLQLVGIHMHIGSGVDYAHLEQVCGAMVRQVIEFGQDLQAISAGGGLSVPYQQGEEAVDTEHYYGLWNAAREQIARHLGHPVKLEIEPGRFLVAQSGVLITQVRSVKQMGSRHFVLVDAGFNDLMRPAMYGSYHHISALAADGRSLEHAPTVETVVAGPLCESGDVFTQQEGGNVETRALPEVKAGDYLVLHDTGAYGASMSSNYNSRPLLPEVLFDNGQARLIRRRQTIEELLALELL
For the molecule B6, the binding entry in test [1] was “binds”.

B7: FabB (enzyme, UniProt P0A953 1-406)
chain: MKRAVITGLGIVSSIGNNQQEVLASLREGRSGITFSQELKDSGMRSHVWGNVKLDTTGLIDRKVVRFMSDASIYAFLSMEQAIADAGLSPEAYQNNPRVGLIAGSGGGSPRFQVFGADAMRGPRGLKAVGPYVVTKAMASGVSACLATPFKIHGVNYSISSACATSAHCIGNAVEQIQLGKQDIVFAGGGEELCWEMACEFDAMGALSTKYNDTPEKASRTYDAHRDGFVIAGGGGMVVVEELEHALARGAHIYAEIVGYGATSDGADMVAPSGEGAVRCMKMAMHGVDTPIDYLNSHGTSTPVGDVKELAAIREVFGDKSPAISATKAMTGHSLGAAGVQEAIYSLLMLEHGFIAPSINIEELDEQAAGLNIVTETTDRELTTVMSNSFGFGGTNATLVMRKLKD
With B7, the binding entry in test [1] was “binds”.

B8: FabH (enzyme, UniProt P0A6R0 1-317)
chain: MYTKIIGTGSYLPEQVRTNADLEKMVDTSDEWIVTRTGIRERHIAAPNETVSTMGFEAATRAIEMAGIEKDQIGLIVVATTSATHAFPSAACQIQSMLGIKGCPAFDVAAACAGFTYALSVADQYVKSGAVKYALVVGSDVLARTCDPTDRGTIIIFGDGAGAAVLAASEEPGIISTHLHADGSYGELLTLPNADRVNPENSIHLTMAGNEVFKVAVTELAHIVDETLAANNLDRSQLDWLVPHQANLRIISATAKKLGMSMDNVVVTLDRHGNTSAASVPCALDEAVRDGRIKPGQLVLLEAFGGGFTWGSALVRF
Take B8: in test [1], the binding entry is given as “binds”.

B9: PAPR-Flag-6×His (3'-phosphoadenosine 5'-phosphosulfate reductase) (enzyme, UniProt P17854 1-244)
chain: MSKLDLNALNELPKVDRILALAETNAELEKLDAEGRVAWALDNLPGEYVLSSSFGIQAAVSLHLVNQIRPDIPVILTDTGYLFPETYRFIDELTDKLKLNLKVYRATESAAWQEARYGKLWEQGVEGIEKYNDINKVEPMNRALKELNAQTWFAGLRREQSGSRANLPVLAIQRGVFKVLPIIDWDNRTIYQYLQKHGLKYHPLWDEGYLSVGDTHTTRKWEPGMAEEETRFFGLKRECGLHEG
B9: the binding entry in test [4] is on record as “binds weakly”.

B10: PAPR-Flag (co-expressed with Trx1-6×His) (enzyme, UniProt P17854 1-244)
chain: B9 chain
For the molecule B10, the binding result in test [2] is listed as “binds”.

The values above are taken from article PMC9986639.
